# Results as given in patent US9623031B2, “Compositions, methods and kits for treating cancer” (priority 2011, dated 2017).
# Test system: RAW264.7 macrophages
# Assay: Endogenous production of PGD3 metabolites in EPA-treated RAW264.7 macrophages (LC-MS)
# Format: cell-based, mouse
smiles,measurement,setting,value
"CC/C=C\C[C@H](O)C/C=C1/C(=O)C=C[C@@H]1C/C=C\CCCC(=O)O [Δ^12-PGJ3, Δ^12-prostaglandin J3]",Δ^12-PGJ3 produced by macrophages,"50 μM EPA, 48 h post-LPS",~0.15 μM/10^6 cells
same,Δ^12-PGJ3 produced by macrophages,LC-MS/MS,~0.15 μM/10^6 macrophages
